According to PMC3197579:
These are yes or no findings as the source states them, for the method shown. Some results given as binding are weak or reduced against the parent protein; the word gives no strength.

Protein sequences, listed by entry. Tags and fused reporters are not part of them. Lines headed by an entry give the natural chain unless they say otherwise; changes in a name come on top. Chains listed by the source or under a name are the forms on record and can include a tag or linker.
UniProt Q13285: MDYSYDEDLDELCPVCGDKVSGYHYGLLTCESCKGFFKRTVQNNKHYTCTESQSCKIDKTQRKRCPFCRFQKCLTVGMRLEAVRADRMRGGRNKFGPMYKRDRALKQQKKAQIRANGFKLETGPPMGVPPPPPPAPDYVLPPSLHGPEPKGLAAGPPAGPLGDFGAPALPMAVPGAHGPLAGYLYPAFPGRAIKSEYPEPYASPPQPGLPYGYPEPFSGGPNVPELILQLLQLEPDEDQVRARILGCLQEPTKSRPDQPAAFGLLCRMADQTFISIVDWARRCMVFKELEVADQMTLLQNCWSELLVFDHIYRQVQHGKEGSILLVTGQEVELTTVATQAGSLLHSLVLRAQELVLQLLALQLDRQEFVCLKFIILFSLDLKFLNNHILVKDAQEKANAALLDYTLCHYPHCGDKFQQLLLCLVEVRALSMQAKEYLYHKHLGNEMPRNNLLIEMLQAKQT
NR5A1 p.Arg313Cys (Q13285, form named): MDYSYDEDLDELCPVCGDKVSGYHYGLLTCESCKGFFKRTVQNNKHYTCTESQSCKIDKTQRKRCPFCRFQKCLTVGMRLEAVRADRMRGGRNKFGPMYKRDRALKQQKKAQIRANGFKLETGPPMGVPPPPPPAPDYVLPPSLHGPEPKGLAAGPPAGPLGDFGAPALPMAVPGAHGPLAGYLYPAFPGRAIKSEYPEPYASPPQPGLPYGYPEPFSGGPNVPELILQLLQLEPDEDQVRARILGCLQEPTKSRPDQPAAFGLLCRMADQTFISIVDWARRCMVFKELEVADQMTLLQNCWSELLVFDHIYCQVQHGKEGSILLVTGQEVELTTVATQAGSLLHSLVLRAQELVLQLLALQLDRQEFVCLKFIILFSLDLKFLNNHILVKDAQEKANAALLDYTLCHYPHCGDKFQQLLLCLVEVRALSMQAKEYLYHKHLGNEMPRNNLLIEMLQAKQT
NR5A1 p.Arg39Pro (Q13285, form named): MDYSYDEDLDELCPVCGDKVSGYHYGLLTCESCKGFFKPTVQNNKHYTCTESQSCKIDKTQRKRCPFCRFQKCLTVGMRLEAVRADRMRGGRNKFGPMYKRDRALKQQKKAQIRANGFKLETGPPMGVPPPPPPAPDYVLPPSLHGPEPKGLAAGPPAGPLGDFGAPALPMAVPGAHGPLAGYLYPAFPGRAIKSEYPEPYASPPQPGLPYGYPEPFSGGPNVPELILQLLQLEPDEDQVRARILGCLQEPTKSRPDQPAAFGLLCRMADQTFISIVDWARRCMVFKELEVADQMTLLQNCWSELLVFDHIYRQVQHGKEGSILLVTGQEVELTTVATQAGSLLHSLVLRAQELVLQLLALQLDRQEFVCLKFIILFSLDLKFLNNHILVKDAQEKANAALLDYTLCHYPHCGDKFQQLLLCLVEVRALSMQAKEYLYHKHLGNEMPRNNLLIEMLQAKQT
UniProt Q08369: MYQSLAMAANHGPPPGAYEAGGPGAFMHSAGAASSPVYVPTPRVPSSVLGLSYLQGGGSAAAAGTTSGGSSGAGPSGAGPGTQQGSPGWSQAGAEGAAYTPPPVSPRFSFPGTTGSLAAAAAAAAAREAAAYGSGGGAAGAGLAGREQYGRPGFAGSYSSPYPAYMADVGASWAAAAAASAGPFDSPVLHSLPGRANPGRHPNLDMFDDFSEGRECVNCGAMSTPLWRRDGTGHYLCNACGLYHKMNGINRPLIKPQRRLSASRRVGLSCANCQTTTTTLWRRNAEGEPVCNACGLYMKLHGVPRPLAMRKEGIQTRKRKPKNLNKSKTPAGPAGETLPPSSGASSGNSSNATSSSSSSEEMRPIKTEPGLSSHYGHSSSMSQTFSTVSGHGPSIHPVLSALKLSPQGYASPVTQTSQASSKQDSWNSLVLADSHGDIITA

Key:
Assay in all cases: far-Western, overlay or dot blot; in vitro translated NR5A1 proteins fractionated on 10% SDS-PAGE, transferred to nitrocellulose, treated with 6 to 0.19 M guanidine HCl in buffer A (20 mM HEPES pH 7.5, 50 mM NaCl, 1 mM EDTA, 1 mM DTT, 10% glycerol), blocked with 1% BSA; incubated overnight at 4°C with in vitro translated GATA4 (2 µg/ml) in buffer A with 1% BSA and 0.1% Tween-20; bound GATA4 detected with anti-GATA4 antibody
[1] = target: NR5A1 p.Arg313Cys (human) (UniProt Q13285)
NR5A1 p.Arg39Pro (human) = NR5A1 p.Arg39Pro (human) (UniProt Q13285)
[2] = target: wild-type NR5A1 (steroidogenic factor-1) (human) (UniProt Q13285)

Measured: binding

GATA4 (from UniProt Q08369 1-441)
binds: all assays above
